Measurements as given in PubChem BioAssay AID758 (NMMLSC, 2007).
The whole screen tested about 190,000 compounds, of which about 110 (0.058%) were called active. Inconclusive means that the source gave no clear call. Such entries were picked first, then a sample of the others.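 How the source made its calls: active means fluorescent GTP binding to Rab7 beads changed by at least 20 points from the 100% baseline, either direction, mostly lower; inconclusive means compound itself probably fluorescent, or too few beads counted; inactive means the rest.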

system: Rab7 GTPase wild type (dog), Bodipy-FL-GTP binding; experiment: modulators of GTP binding to Rab7, primary screen, biochemical, wildtype, multiplex bead flow cytometry (AID 758); details: GST-Rab7 beads, fluorescent GTP binding, at 10 µM, actives lie on both sides, untreated = 100%, excess cold GTP = 0%;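 further: median green fluorescence of bound Bodipy-FL-GTP per Rab7 bead population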

| SMILES | GTP binding activity (percent of control) |
| --- | --- |
| Clc1ccc(-c2noc(CN3CCN(c4ccccc4)CC3)n2)cc1 | inconclusive: 95% |
| O=c1[nH][nH]c2cc(=O)n(-c3ccc(Cl)cc3)nc12 | inactive: 104% |
| O=C(Nc1nnc(-c2ccccc2)o1)c1ccc(Cl)cc1 | inconclusive: 88% |
| O=C1c2ccccc2S(=O)(=O)N1CC(O)Cn1ccc2ccccc21 (configuration not stated) | inconclusive: 93% |
| Cn1c(CCN2CCOCC2)nc2cc(NC(=O)COc3ccc(Cl)cc3)ccc21 | inconclusive: 106% |
| CCC(Sc1ccccc1C(=O)O)C(=O)O (configuration not stated) | inconclusive: 103% |
| CC(=O)Nc1ccc(/C=N/N2CCCCC2)cc1 | inactive: 105% |
| CN(C)C(=O)/C(=C\c1ccncc1)NC(=O)c1ccccc1 | inconclusive: 97% |
| COc1ccc(Nc2cc(Cl)nc(N)n2)cc1 | inconclusive: 94% |
| CCN(CC)C(=O)Cn1c(=O)c2ccccc2n2c(=S)sc(-c3cccc(C)c3)c12 | inactive: 102% |
| Cc1nc2c(c3c1[nH]c1ccccc13)C(O)CC(C)(C)C2 (configuration not stated) | inactive: 102% |
| Cc1[nH]c(C)c(C(=O)O)c1CNC1CCCCC1C (configuration not stated) | inconclusive: 106% |
| S=C(Nc1ccccc1)N1N=C(c2cccs2)CC1c1cccs1 (configuration not stated) | inactive: 93% |
| COc1cc(CNC(C)(C)CO)ccc1OCC(=O)Nc1ccc(Br)cc1 | inactive: 102% |
| COc1ccc2c(c1OC)C(=O)N1c3ccccc3SC21 (configuration not stated) | inconclusive: 104% |
| N=C1/C(=C\c2ccc(SCc3ccco3)o2)C(=O)N=C2SC=NN12 | inactive: 88% |
| COc1cccc(Oc2cncnc2-c2ccc(OC)cc2O)c1 | inconclusive: 93% |
| c1ccc(-n2nnnc2SCc2cn3ccccc3n2)cc1 | inconclusive: 103% |
| c1ccc2c(c1)[nH]c1nc3nncn3nc12 | inconclusive: 90% |
| Cc1ccc(N2C(=O)C(Cc3ccc(O)cc3)NC2=S)cc1C (configuration not stated) | inactive: 102% |
| COC(=O)c1ccccc1NC(=O)CSc1nnnn1-c1ccc(C)cc1C | inconclusive: 96% |
| O=C(COC(=O)c1cccnc1Cl)c1ccc(OC(F)F)cc1 | inactive: 100% |
| COc1cc(NC(=S)Nc2cccc(C)n2)cc(OC)c1OC | inconclusive: 94% |
| O=C(CSc1ccccc1C(=O)NCc1ccccc1)NC1CCCCCCC1 | inactive: 99% |

Random excerpt: 3 records from the list

| SMILES | GTP binding activity (percent of control) |
| --- | --- |
| CN(C)C(=O)/C(=C\c1ccncc1)NC(=O)c1ccccc1 | inconclusive: 97% |
| COc1cccc(Oc2cncnc2-c2ccc(OC)cc2O)c1 | inconclusive: 93% |
| Cc1nc2c(c3c1[nH]c1ccccc13)C(O)CC(C)(C)C2 (configuration not stated) | inactive: 102% |

Next part:

| SMILES | GTP binding activity (percent of control) |
| --- | --- |
| COc1ccc(C(=O)Nc2nnc(-c3cccs3)s2)cc1 | inconclusive: 105% |
| O=C(CN1C(=O)c2cccc3cccc1c23)Nc1ccccc1 | inactive: 98% |
| COC(=O)c1cccc(C(=O)Nc2cnc3ccccc3c2)n1 | inconclusive: 93% |
| Cc1cc(C)c(S(=O)(=O)c2ccccc2C)c(OCC(C)(C)C)n1 | inconclusive: 95% |
| N#C/C(=N/O)c1nc(-c2ccc(F)cc2)cs1 | inconclusive: 101% |
| Cc1cc(NC(=O)c2oc3ccccc3c2C)ccc1-n1cnnn1 | inconclusive: 160% |
| CCCNC(=O)NC(=O)CSc1nncs1 | inactive: 89% |
| N#Cc1c(N)n(CCCN2CCOCC2)c2nc3ccccc3nc12 | inconclusive: 96% |
| O=S(=O)(Nc1cc(Sc2cccc3cccnc23)c(O)c2ccccc12)c1ccccc1 | inconclusive: 89% |
| CSc1nsc(SCC(=O)N2CCCCC2)n1 | inactive: 102% |
| CC(=O)c1c(N2CCN(C)CC2)nc(=S)n(-c2cc(C)ccc2C)c1C | inactive: 95% |
| CCOc1ccc(OCc2cccc(C(=O)N/N=C/c3cccnc3)c2)cc1 | inactive: 100% |
| N#C/C(=C\c1ccncc1)c1nc2ccccc2c(=O)[nH]1 | inconclusive: 92% |
| Fc1cccc(Cl)c1-c1nnc2ccc(C(F)(F)F)cn12 | inactive: 107% |
| COc1ccc(/C=C2/SC(=O)N(CC(=O)Nc3cc(C)on3)C2=O)cc1OC | inconclusive: 105% |
| CN(C)c1ccc(NC(=O)CN2C(=O)CC(c3ccccc3)=Nc3ccccc32)cc1 | inconclusive: 91% |
| N#Cc1nc(COc2ccccc2Cl)oc1NCc1ccc(F)cc1 | inconclusive: 104% |
| Cc1ccc(CSc2nnc(-c3ccccc3N)c(=O)[nH]2)cc1 | inactive: 97% |
| Cc1ccc(OCC(=O)NCc2cccs2)c([N+](=O)[O-])n1 | inactive: 101% |
| CN(C)c1nnnn1-c1ccccc1Oc1ncc(C(F)(F)F)cc1Cl | inconclusive: 93% |
| Cc1ccc(-c2csc(NC(=O)CCNC(=O)c3ccccc3Cl)n2)cc1 | inactive: 96% |
| Cn1c(=O)n(C)c2cc([N+](=O)[O-])c(N3CCN(S(=O)(=O)c4ccc5ccccc5c4)CC3)cc21 | inconclusive: 94% |
| Cc1cc(C)c(O)c(-c2cc(C(=O)Nc3ccc(S(=O)(=O)N4CCOCC4)cc3)[nH]n2)c1 | inconclusive: 90% |
